End groups of sequences in plain letters are not given here.
Experiment: peptide made by a vendor
Conditions: whole synthesis, Liquid chromatography-mass spectrometry

Row | Sequence | final LC-MS purity [%]
1 | ATCTNWNCRTQCIARGKRGGYCVERNICKCTS | 93.97
2 | CIANGNGCQPDGRQGNCCSGFCYKQRGWVAGYCRRR | 95.69
3 | CINNGDGCQPDGRQGNCCSGYCHKEPGWVTGYCR | 90.94
4 | GWWKRVFKPVEKFGQRVRDAGVQGIAIAQQGANVLATARGGPPQQ | 90.49
5 | GWWKRVFKPVEKLGQRVRDAGIQGLEIAQQGANVLATARGGPPQQ | 90.85
6 | GWWKRVFKPVERLGQRVRDAGIQGLQIAQQGANVLATVRGGPPQQ | 90.12
7 | IKCVPSQCNQICRVLGKKCGYCKNASTCVCL | 96.43
8 | LSCLFENQAVSAIACGASCITRKGKRGGWCSNGVCRCTPN | 90.56
9 | QIFAQGGGSPGKGYDIYAQGRAKLWESQNQRNSLHGTASYSQHLGGPYGNSRPNVGGGLTFTHRF | 90.00
10 | RKCTASQCTRVCKKLGYKRGYCQSSTKCVC | 90.22
11 | SAPKLEEESALSYIPDAAEAEIAEPASSHGRVRR | 96.53
12 | SWWKKVFKPVEKLGQRVRDATIQGIGIAQQGANVLATVRGGPPQ | 96.40
13 | TTCDLISGTKIENIACAAHCIAMGHKGGYCNSNLICICR | 93.94
14 | VTCDLLEPFLGPAPCMIHCIVRFRKRTGYCNSQNVCVCR | 94.26

Same assay, conditions: whole synthesis, Liquid chromatography-mass spectrometry, several disulfide bridges; run 1

Row | Sequence | final LC-MS purity [%]
15 | ATCDLLSPFKVGHAACAAHCIARGKRGGWCDKRAVCNCRK [Hill-Def2b] | 99.10
